Results deposited as PubChem BioAssay AID1259254 (NCATS, 2017)
In all, the deposit lists about 59,000 reagents; below is a random part of them. About 1,550 of them (2.6%) were called active. 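G2 share is only a proxy for re-replication; each gene was hit by three separate siRNAs, and active genes were retested.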 Reagents against one gene are numbered here. Further read-outs or replicates are left out here. The record does not give: the amount of reagent.

Assay: 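Gene knock-downs that lead to re-replication, shown by excess G2 DNA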 (primary screen)
Cells: human HCT116 colorectal cancer cells
Reagents: single siRNA against human genes
Timing: 3 days
Detection: 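Nuclei stained with Hoechst and imaged; cell-cycle phase assigned by DNA content; G2 share scaled per plate, non-targeting siRNA 0%, GMNN siRNA 100%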
Direction: G2 robust z-score: higher = more G2 cells, more excess DNA replication
Rule for the call: 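An siRNA counts as active if its G2 robust z-score lies at least 5 MADs above the screen median; here such calls match roughly 38% of GMNN control or more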

With DMXL1 #1, what does the deposit list?
G2 robust z-score: 0.207; outcome: inactive

Which result is listed for DMXL1 #2?
G2 robust z-score: 0.191; outcome: inactive

With DMXL1 #3, what does the deposit list?
G2 robust z-score: 1.22; outcome: inactive

For CASP4 #1, what was measured?
G2 robust z-score: 1.11; outcome: inactive

For CASP4 #2, what does the deposit list?
G2 robust z-score: -0.982; outcome: inactive

With CASP4 #3, how do the results read?
G2 robust z-score: -0.748; outcome: inactive

No new results follow: 2 of the entries above.
CASP4 #1: G2 robust z-score = 1.11; outcome = inactive
CASP4 #2: G2 robust z-score = -0.982; outcome = inactive

Continued.
For CATSPERD #1, what does the deposit list?
G2 robust z-score: 0.348; outcome: inactive

With CATSPERD #2, what does the deposit list?
G2 robust z-score: 0.861; outcome: inactive

What is on record for CATSPERD #3?
G2 robust z-score: 1.13; outcome: inactive

What did the screen give for EEF1DP1 #1?
G2 robust z-score: 0.147; outcome: inactive

For EEF1DP1 #2, what does the deposit list?
G2 robust z-score: 1.14; outcome: inactive

For EEF1DP1 #3, how do the results read?
G2 robust z-score: -0.83; outcome: inactive
